In paper PMC7237453:
No constants are given. Whether binding was seen depends on the method and setting. A result given as binding can be weak or reduced; the word gives no strength. Sequences can lack the tags named with a protein. For some assays here: Binding seen in cells or lysates may run through a third protein.

What was measured:
[1] = target: T1, FLAG-tagged Pit-1 (human) (UniProt P28069); assay: co-IP; HEK293 cells co-transfected with FLAG-Pit-1 and HA-cryptic or HA-canonical ESRRG; cell extract immunoprecipitated with FLAG antibody on protein G agarose; 50 mM Tris, 150 mM NaCl, 0.1% Triton X-100; 4 °C, 16 h; anti-HA immunoblot
T1 sequence: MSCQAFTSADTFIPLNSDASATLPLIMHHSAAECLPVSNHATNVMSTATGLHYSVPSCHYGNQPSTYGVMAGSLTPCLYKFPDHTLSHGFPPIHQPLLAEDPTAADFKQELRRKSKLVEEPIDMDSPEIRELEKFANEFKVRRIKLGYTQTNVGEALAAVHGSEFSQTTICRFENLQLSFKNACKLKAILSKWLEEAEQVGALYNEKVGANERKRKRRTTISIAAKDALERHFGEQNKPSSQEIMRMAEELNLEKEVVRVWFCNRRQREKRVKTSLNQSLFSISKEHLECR

[2] = target: T2, GST-Pit-1 fusion protein (pituitary-specific positive transcription factor 1 fused to glutathione S-transferase) (human) (UniProt P28069); assay: pull-down; GST-Pit-1 (500 ug) immobilised on GST-tag purification resin, incubated with 500 ug HIS-cryptic or HIS-canonical ESRRG; 50 mM Tris, 150 mM NaCl, 0.1% Triton X-100, 10 mM EDTA, pH 8.0; 4 °C, 16 h; anti-HIS immunoblot; GST protein as negative control; both purified
T2 sequence: T1 sequence

Row | binding [1] | binding [2] | Substance
1 | binds |  | HA-tagged cryptic ESRRG (human)
2 |  | binds | HIS-tagged cryptic ESRRG (estrogen related receptor gamma, cryptic splice form) (human)
